Assay results taken from article PMC7738853.
These are yes or no findings as the source states them, for the method shown. In cells and extracts the contact can be indirect. Some binding calls cover weakened binding; strength is not graded here. For part of these data: Tags and fused reporters may be left off the sequences shown. Values belong to the molecule of their own block, whether it stands above or below them.

By UniProt entry, the sequences of proteins in these tests, tags left out.
UniProt Q9Y3Z3: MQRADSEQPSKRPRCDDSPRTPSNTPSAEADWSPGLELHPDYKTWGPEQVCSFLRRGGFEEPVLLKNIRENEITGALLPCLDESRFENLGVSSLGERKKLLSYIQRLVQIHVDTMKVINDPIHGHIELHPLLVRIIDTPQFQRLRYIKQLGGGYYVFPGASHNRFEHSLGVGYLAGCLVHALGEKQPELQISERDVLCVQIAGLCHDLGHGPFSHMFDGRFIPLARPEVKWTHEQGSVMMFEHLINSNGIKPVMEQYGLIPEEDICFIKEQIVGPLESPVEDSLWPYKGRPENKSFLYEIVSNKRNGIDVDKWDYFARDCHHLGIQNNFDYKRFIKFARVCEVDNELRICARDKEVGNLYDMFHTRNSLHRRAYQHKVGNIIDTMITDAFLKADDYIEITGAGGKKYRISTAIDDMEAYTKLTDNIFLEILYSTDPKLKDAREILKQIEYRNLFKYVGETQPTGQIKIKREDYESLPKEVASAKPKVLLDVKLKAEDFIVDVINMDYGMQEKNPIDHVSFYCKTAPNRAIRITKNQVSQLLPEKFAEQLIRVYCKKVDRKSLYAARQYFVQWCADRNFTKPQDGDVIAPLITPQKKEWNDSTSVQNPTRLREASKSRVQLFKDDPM

Experiments:
[1] = molecular target: T1, HA-OGT (HEK293T) (human) (UniProt O15294); test: co-IP; HEK293T cells co-transfected with the Flag- and HA-tagged constructs; immunoprecipitation with anti-HA antibody, immunoblot
T1 sequence: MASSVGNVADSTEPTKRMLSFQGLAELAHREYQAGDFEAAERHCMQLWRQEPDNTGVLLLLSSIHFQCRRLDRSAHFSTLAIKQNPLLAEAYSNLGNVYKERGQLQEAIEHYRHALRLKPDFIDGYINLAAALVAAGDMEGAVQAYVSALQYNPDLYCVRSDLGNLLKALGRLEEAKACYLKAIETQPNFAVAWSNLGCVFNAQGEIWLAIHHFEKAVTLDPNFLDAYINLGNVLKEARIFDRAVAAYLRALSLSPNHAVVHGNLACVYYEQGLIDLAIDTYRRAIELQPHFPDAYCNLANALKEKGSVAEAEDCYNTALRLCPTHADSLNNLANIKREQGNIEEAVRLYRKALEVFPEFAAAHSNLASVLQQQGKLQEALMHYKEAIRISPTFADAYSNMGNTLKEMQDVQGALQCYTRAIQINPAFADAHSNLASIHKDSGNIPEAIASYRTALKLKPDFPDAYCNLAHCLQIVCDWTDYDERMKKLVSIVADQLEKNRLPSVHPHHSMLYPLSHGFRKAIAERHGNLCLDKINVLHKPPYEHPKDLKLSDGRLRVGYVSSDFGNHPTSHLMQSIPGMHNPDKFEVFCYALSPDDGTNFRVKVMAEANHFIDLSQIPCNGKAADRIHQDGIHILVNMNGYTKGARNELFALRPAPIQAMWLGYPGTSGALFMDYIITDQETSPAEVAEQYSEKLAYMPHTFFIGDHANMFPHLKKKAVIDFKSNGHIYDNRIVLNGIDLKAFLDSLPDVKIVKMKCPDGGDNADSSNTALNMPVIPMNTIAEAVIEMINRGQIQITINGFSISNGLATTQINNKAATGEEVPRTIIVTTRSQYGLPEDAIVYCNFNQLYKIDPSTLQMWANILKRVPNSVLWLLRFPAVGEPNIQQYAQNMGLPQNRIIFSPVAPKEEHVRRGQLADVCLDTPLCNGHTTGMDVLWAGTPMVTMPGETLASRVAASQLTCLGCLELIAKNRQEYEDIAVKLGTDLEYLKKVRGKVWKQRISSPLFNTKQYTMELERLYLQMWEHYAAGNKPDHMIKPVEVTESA

[2] = molecular target: sterile alpha motif and histidine/aspartic acid domain-containing protein 1 (SAMHD1), endogenous in HepG2 cells (human (endogenous in HepG2)) (UniProt Q9Y3Z3); test: co-IP; endogenous proteins; HepG2 cell extracts immunoprecipitated with anti-SAMHD1 antibody, immunoblot
[3] = molecular target: HA-SAMHD1 (HEK293T) (human) (UniProt Q9Y3Z3); test: co-IP; HEK293T cells co-transfected with the Flag- and HA-tagged constructs; immunoprecipitation with anti-HA antibody, immunoblot

binding [1]: binds
Molecule: Flag-SAMHD1 (HEK293T) (from UniProt Q9Y3Z3 1-626)

binding [2]: binds
B1: O-GlcNAc transferase (OGT), endogenous in HepG2 cells (enzyme, UniProt O15294 1-1046)
chain: MASSVGNVADSTEPTKRMLSFQGLAELAHREYQAGDFEAAERHCMQLWRQEPDNTGVLLLLSSIHFQCRRLDRSAHFSTLAIKQNPLLAEAYSNLGNVYKERGQLQEAIEHYRHALRLKPDFIDGYINLAAALVAAGDMEGAVQAYVSALQYNPDLYCVRSDLGNLLKALGRLEEAKACYLKAIETQPNFAVAWSNLGCVFNAQGEIWLAIHHFEKAVTLDPNFLDAYINLGNVLKEARIFDRAVAAYLRALSLSPNHAVVHGNLACVYYEQGLIDLAIDTYRRAIELQPHFPDAYCNLANALKEKGSVAEAEDCYNTALRLCPTHADSLNNLANIKREQGNIEEAVRLYRKALEVFPEFAAAHSNLASVLQQQGKLQEALMHYKEAIRISPTFADAYSNMGNTLKEMQDVQGALQCYTRAIQINPAFADAHSNLASIHKDSGNIPEAIASYRTALKLKPDFPDAYCNLAHCLQIVCDWTDYDERMKKLVSIVADQLEKNRLPSVHPHHSMLYPLSHGFRKAIAERHGNLCLDKINVLHKPPYEHPKDLKLSDGRLRVGYVSSDFGNHPTSHLMQSIPGMHNPDKFEVFCYALSPDDGTNFRVKVMAEANHFIDLSQIPCNGKAADRIHQDGIHILVNMNGYTKGARNELFALRPAPIQAMWLGYPGTSGALFMDYIITDQETSPAEVAEQYSEKLAYMPHTFFIGDHANMFPHLKKKAVIDFKSNGHIYDNRIVLNGIDLKAFLDSLPDVKIVKMKCPDGGDNADSSNTALNMPVIPMNTIAEAVIEMINRGQIQITINGFSISNGLATTQINNKAATGEEVPRTIIVTTRSQYGLPEDAIVYCNFNQLYKIDPSTLQMWANILKRVPNSVLWLLRFPAVGEPNIQQYAQNMGLPQNRIIFSPVAPKEEHVRRGQLADVCLDTPLCNGHTTGMDVLWAGTPMVTMPGETLASRVAASQLTCLGCLELIAKNRQEYEDIAVKLGTDLEYLKKVRGKVWKQRISSPLFNTKQYTMELERLYLQMWEHYAAGNKPDHMIKPVEVTESA

binding [3]: binds
B2: Flag-OGT (HEK293T) (enzyme, UniProt O15294 1-1046)
chain: MASSVGNVADSTEPTKRMLSFQGLAELAHREYQAGDFEAAERHCMQLWRQEPDNTGVLLLLSSIHFQCRRLDRSAHFSTLAIKQNPLLAEAYSNLGNVYKERGQLQEAIEHYRHALRLKPDFIDGYINLAAALVAAGDMEGAVQAYVSALQYNPDLYCVRSDLGNLLKALGRLEEAKACYLKAIETQPNFAVAWSNLGCVFNAQGEIWLAIHHFEKAVTLDPNFLDAYINLGNVLKEARIFDRAVAAYLRALSLSPNHAVVHGNLACVYYEQGLIDLAIDTYRRAIELQPHFPDAYCNLANALKEKGSVAEAEDCYNTALRLCPTHADSLNNLANIKREQGNIEEAVRLYRKALEVFPEFAAAHSNLASVLQQQGKLQEALMHYKEAIRISPTFADAYSNMGNTLKEMQDVQGALQCYTRAIQINPAFADAHSNLASIHKDSGNIPEAIASYRTALKLKPDFPDAYCNLAHCLQIVCDWTDYDERMKKLVSIVADQLEKNRLPSVHPHHSMLYPLSHGFRKAIAERHGNLCLDKINVLHKPPYEHPKDLKLSDGRLRVGYVSSDFGNHPTSHLMQSIPGMHNPDKFEVFCYALSPDDGTNFRVKVMAEANHFIDLSQIPCNGKAADRIHQDGIHILVNMNGYTKGARNELFALRPAPIQAMWLGYPGTSGALFMDYIITDQETSPAEVAEQYSEKLAYMPHTFFIGDHANMFPHLKKKAVIDFKSNGHIYDNRIVLNGIDLKAFLDSLPDVKIVKMKCPDGGDNADSSNTALNMPVIPMNTIAEAVIEMINRGQIQITINGFSISNGLATTQINNKAATGEEVPRTIIVTTRSQYGLPEDAIVYCNFNQLYKIDPSTLQMWANILKRVPNSVLWLLRFPAVGEPNIQQYAQNMGLPQNRIIFSPVAPKEEHVRRGQLADVCLDTPLCNGHTTGMDVLWAGTPMVTMPGETLASRVAASQLTCLGCLELIAKNRQEYEDIAVKLGTDLEYLKKVRGKVWKQRISSPLFNTKQYTMELERLYLQMWEHYAAGNKPDHMIKPVEVTESA
